Some of the results follow. Repeats are few or missing, and single values can be far off.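 Cells were imaged in 1,536-well plates, and nuclei stained with an antibody against cleaved PARP were counted against all DNA-stained nuclei to give the apoptosis fraction. Screening doses were chosen to leave most cells alive, and resting and induced cleaved-PARP levels differ strongly between cell lines.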
Test system: SkMel2
Test: cleaved PARP positive nuclei fraction relative to DMSO control; melanoma cells; higher = more apoptosis
Details: library dose: low library concentration; 72 h

Compound	cleaved PARP positive nuclei fraction [%]
COc1cc([C@@H]2c3cc4c(cc3[C@@H](O[C@@H]3O[C@@H]5CO[C@@H](C)O[C@H]5[C@H](O)[C@H]3O)[C@H]3COC(=O)[C@H]23)OCO4)cc(OC)c1O [etoposide] + C/C(O)=C(\C#N)C(=O)Nc1cc(Br)ccc1Br [LFM-A13] (first compound 0.02 µM, partner dose 2 µM)	71.2
Cn1cnc2c(F)c(Nc3ccc(Br)cc3Cl)c(C(=O)NOCCO)cc21 [selumetinib] + O=C(Oc1ccc([N+](=O)[O-])cc1)N1CCC(C(O)(c2ccc3c(c2)OCO3)c2ccc3c(c2)OCO3)CC1 [JZL184] (first compound 0.015 µM, partner dose 1 µM)	60.4
Nc1ncn([C@H]2C[C@H](O)[C@@H](CO)O2)c(=O)n1 [decitabine] + O=C(Oc1ccc([N+](=O)[O-])cc1)N1CCC(C(O)(c2ccc3c(c2)OCO3)c2ccc3c(c2)OCO3)CC1 [JZL184] (first compound 0.1 µM, partner dose 1 µM)	70
C[As](C)SC[C@H](NC(=O)CC[C@H](N)C(=O)O)C(=O)NCC(=O)O [Darinaparsin] + O=C(O)c1ccc(-c2c[nH]c3ncc(-c4ccccc4)cc23)cc1C1CCCC1 [GSK650394] (first compound 0.4 µM, partner dose 0.16 µM)	59.6
O=C(Nc1cc(C(F)(F)F)cc(C(F)(F)F)c1)c1cc(Cl)ccc1O + O=C(Oc1ccc([N+](=O)[O-])cc1)N1CCC(C(O)(c2ccc3c(c2)OCO3)c2ccc3c(c2)OCO3)CC1 [JZL184] (first compound 0.016 µM, partner dose 1 µM)	90.8
Cn1cc(C2=C(c3cn(C4CCN(Cc5ccccn5)CC4)c4ccccc34)C(=O)NC2=O)c2ccccc21 [Enzastaurin] + O=C(Oc1ccc([N+](=O)[O-])cc1)N1CCC(C(O)(c2ccc3c(c2)OCO3)c2ccc3c(c2)OCO3)CC1 [JZL184] (first compound 0.8 µM, partner dose 1 µM)	88
N.N.[Cl][Pt][Cl] [cisplatin] + CO[C@@H]1[C@H](N(C)C(=O)c2ccccc2)C[C@H]2O[C@]1(C)n1c3ccccc3c3c4c(c5c6ccccc6n2c5c31)C(=O)NC4 [Midostaurin] (first compound 1.6 µM, partner dose 0.08 µM)	236
CCN(CC)CCNC(=O)c1c(C)[nH]c(/C=C2\C(=O)Nc3ccc(F)cc32)c1C [sunitinib] + O=C(Oc1ccc([N+](=O)[O-])cc1)N1CCC(C(O)(c2ccc3c(c2)OCO3)c2ccc3c(c2)OCO3)CC1 [JZL184] (first compound 0.4 µM, partner dose 1 µM)	67.3
N.N.[Cl][Pt][Cl] [cisplatin] + Oc1cc(-c2nc(-c3ccccc3)[nH]c2-c2ccncc2)ccc1Cl [L779450] (first compound 1.6 µM, partner dose 0.2 µM)	68.8
Clc1ccc(Nc2nnc(Cc3ccncc3)c3ccccc23)cc1 [vatalanib] + O=C(Oc1ccc([N+](=O)[O-])cc1)N1CCC(C(O)(c2ccc3c(c2)OCO3)c2ccc3c(c2)OCO3)CC1 [JZL184] (first compound 2 µM, partner dose 1 µM)	115
C[As](C)SC[C@H](NC(=O)CC[C@H](N)C(=O)O)C(=O)NCC(=O)O [Darinaparsin] + OCCn1cc(-c2cnc3nnn(Cc4ccc5ncccc5c4)c3n2)cn1 [PF04217903] (first compound 0.4 µM, partner dose 1 µM)	98.5
C[C@@H](N)c1ccc(C(=O)Nc2ccnc3[nH]ccc23)cc1 + Cc1cc(SCc2sc(-c3ccc(C(F)(F)F)c(F)c3)nc2C)ccc1OCC(=O)O [GW0742] (first compound 0.4 µM, partner dose 2 µM)	131
N.N.[Cl][Pt][Cl] [cisplatin] + Cn1cncc1[C@@](N)(c1ccc(Cl)cc1)c1ccc2c(c1)c(-c1cccc(Cl)c1)cc(=O)n2C [tipifarnib] (first compound 1.6 µM, partner dose 0.01 µM)	99

— the supplement of paper PMC4604168 (melanoma cell lines)
